Results from US20110218199A1, “PYRIDONEAMIDE DERIVATIVES, THEIR MANUFACTURE AND USE AS PHARMACEUTICAL AGENTS” (priority 2007, published 2011).
Some entries share one result that the patent states for a list of compounds. Some ranges recur; such a range may be that of the whole group of compounds.

Chains of the proteins cited; added tags and fusions are not shown. Residues count along the entry.
UniProt Q05397, 422-680 limits assumed, species assumed: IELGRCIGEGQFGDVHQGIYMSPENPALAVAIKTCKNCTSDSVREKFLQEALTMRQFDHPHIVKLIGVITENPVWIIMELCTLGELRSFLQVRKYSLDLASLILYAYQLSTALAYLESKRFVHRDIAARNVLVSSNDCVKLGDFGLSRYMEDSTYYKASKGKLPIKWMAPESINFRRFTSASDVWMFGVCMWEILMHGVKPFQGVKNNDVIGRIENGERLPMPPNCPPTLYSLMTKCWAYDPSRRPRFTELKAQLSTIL

Each compound was assayed against T1, FAK Kinase Domain (KD) (Homo sapiens, UniProt Q05397) (assay: IC50 determination for inhibitors of FAK (ELISA-type assay)). Details: FAK kinase domain from baculo Sf9, biotinylated FAK-397 peptide, 10 μM ATP, 30 min.
T1 construct: FAK Kinase Domain (KD) from baculo Sf9 was used; made in house; host or cells: baculovirus / Sf9 insect cells
Assay type: biochemical

IC50 FAK inhibition, 1 to 2000 nM:
O=C(Nc1ccc(N2CCOCC2)cc1)c1c(NC[C@@H](O)c2cccc(Cl)c2)cc[nH]c1=O [Example 4n, 4-[(S)-2-(3-Chloro-phenyl)-2-hydroxy-ethylamino]-2-oxo-1,2-dihydro-pyridine-3-carboxylic acid (4-morpholin-4-yl-phenyl)-amide]
COc1ccc(NC(=O)c2c(NCc3ccccn3)cc[nH]c2=O)cc1N1CCN(C)CC1 [Example 6b, 2-Oxo-4-[(pyridin-2-ylmethyl)-amino]-1,2-dihydro-pyridine-3-carboxylic acid [4-methoxy-3-(4-methyl-piperazin-1-yl)-phenyl]-amide]
O=C(Nc1ccc(N2CCOCC2)cc1)c1c(NCc2ccccn2)cc[nH]c1=O [Example 6r, 2-Oxo-4-[(pyridin-2-ylmethyl)-amino]-1,2-dihydro-pyridine-3-carboxylic acid (4-morpholin-4-yl-phenyl)-amide]
CN1CCN(c2ccc(NC(=O)c3c(NCCc4cccc(Cl)c4)cc[nH]c3=O)cc2F)CC1 [Example 4a, 4-[2-(3-Chloro-phenyl)-ethylamino]-2-oxo-1,2-dihydro-pyridine-3-carboxylic acid [3-fluoro-4-(4-methyl-piperazin-1-yl)-phenyl]-amide]
CSc1cccc(NC(=O)c2c(NC[C@@H](O)c3cccc(Cl)c3)cc[nH]c2=O)c1 [Example 4q, 4-[(S)-2-(3-Chloro-phenyl)-2-hydroxy-ethylamino]-2-oxo-1,2-dihydro-pyridine-3-carboxylic acid (3-methylsulfanyl-phenyl)-amide]
O=C(Nc1cccc(N2CCCC2)c1)c1c(NCc2ccccn2)cc[nH]c1=O [Example 2f, 2-Oxo-4-[(pyridin-2-ylmethyl)-amino]-1,2-dihydro-pyridine-3-carboxylic acid (3-pyrrolidin-1-yl-phenyl)-amide]
O=C(Nc1cccc(N2CCCCC2)c1)c1c(NC[C@@H](O)c2ccccc2)cc[nH]c1=O [Example 2x, 4-[(S)-2-Hydroxy-2-phenyl-ethylamino]-2-oxo-1,2-dihydro-pyridine-3-carboxylic acid (3-piperidin-1-yl-phenyl)-amide]
COc1ccc(NC(=O)c2c(NC[C@@H](O)c3cccc(Cl)c3)cc[nH]c2=O)cc1N1CCN(C)CC1 [Example 4i, 4-[(S)-2-(3-Chloro-phenyl)-2-hydroxy-ethylamino]-2-oxo-1,2-dihydro-pyridine-3-carboxylic acid [4-methoxy-3-(4-methyl-piperazin-1-yl)-phenyl]-amide]
CN(C)c1ccc(NC(=O)c2c(NC[C@@H](O)c3ccccc3)cc[nH]c2=O)cc1 [Example 4e, 4-[(S)-2-Hydroxy-2-phenyl-ethylamino]-2-oxo-1,2-dihydro-pyridine-3-carboxylic acid (4-dimethylamino-phenyl)-amide]
CN1CCN(c2cccc(NC(=O)c3c(NCCc4cnc[nH]4)cc[nH]c3=O)c2)CC1 [Example 4ac, 4-[2-(3H-Imidazol-4-yl)-ethylamino]-2-oxo-1,2-dihydro-pyridine-3-carboxylic acid [3-(4-methyl-piperazin-1-yl)-phenyl]-amide]
CCNc1cc[nH]c(=O)c1C(=O)Nc1ccc(OC)c(N2CCN(C)CC2)c1 [Example 6y, 4-Ethylamino-2-oxo-1,2-dihydro-pyridine-3-carboxylic acid [4-methoxy-3-(4-methyl-piperazin-1-yl)-phenyl]-amide]
O=C(Nc1ccc(N2CCOCC2)c(F)c1)c1c(NCCc2cccc(Cl)c2)cc[nH]c1=O [Example 2a, 4-[2-(3-Chloro-phenyl)-ethylamino]-2-oxo-1,2-dihydro-pyridine-3-carboxylic acid (3-fluoro-4-morpholin-4-yl-phenyl)-amide]
CN1CCN(c2ccc(NC(=O)c3c(NC[C@@H](O)c4ccccc4)cc[nH]c3=O)cc2F)CC1 [Example 4c, 4-[(S)-2-Hydroxy-2-phenyl-ethylamino]-2-oxo-1,2-dihydro-pyridine-3-carboxylic acid [3-fluoro-4-(4-methyl-piperazin-1-yl)-phenyl]-amide]
COc1cccc(CCNc2cc[nH]c(=O)c2C(=O)Nc2cccc(N3CCN(C)CC3)c2)c1 [Example 4y, 4-[2-(3-Methoxy-phenyl)-ethylamino]-2-oxo-1,2-dihydro-pyridine-3-carboxylic acid [3-(4-methyl-piperazin-1-yl)-phenyl]-amide]
CN1CCN(c2ccc(NC(=O)c3c(NC[C@@H](O)c4ccccc4)cc[nH]c3=O)cc2)CC1 [Example 2q, 4-[(S)-2-Hydroxy-2-phenyl-ethylamino]-2-oxo-1,2-dihydro-pyridine-3-carboxylic acid [4-(4-methyl-piperazin-1-yl)-phenyl]-amide]
CN1CCN(c2ccc(NC(=O)c3c(NCc4ccccn4)cc[nH]c3=O)cc2)CC1 [Example 2s, 2-Oxo-4-[(pyridin-2-ylmethyl)-amino]-1,2-dihydro-pyridine-3-carboxylic acid [4-(4-methyl-piperazin-1-yl)-phenyl]-amide]
O=C(Nc1cccc(CN2CCCCC2)c1)c1c(NCCc2ccccc2)cc[nH]c1=O [Example 6t, 2-Oxo-4-phenethylamino-1,2-dihydro-pyridine-3-carboxylic acid (3-piperidin-1-ylmethyl-phenyl)-amide]
CC(CNc1cc[nH]c(=O)c1C(=O)Nc1ccc(N2CCN(C)CC2)cc1)c1ccccc1 (stereo not drawn) [Example 6ae, 2-Oxo-4-(2-phenyl-propylamino)-1,2-dihydro-pyridine-3-carboxylic acid [4-(4-methyl-piperazin-1-yl)-phenyl]-amide]
O=C(Nc1ccc(N2CCCCC2)cc1)c1c(NCC(O)c2cccc(Cl)c2)cc[nH]c1=O (stereo not drawn) [Example 2h, 4-[2-(3-Chloro-phenyl)-2-hydroxy-ethylamino]-2-oxo-1,2-dihydro-pyridine-3-carboxylic acid (4-piperidin-1-yl-phenyl)-amide]
O=C(Nc1cccc(CN2CCCC2)c1)c1c(NC[C@@H](O)c2ccccc2)cc[nH]c1=O [Example 4s, 4-((S)-2-Hydroxy-2-phenyl-ethylamino)-2-oxo-1,2-dihydro-pyridine-3-carboxylic acid (3-pyrrolidin-1-ylmethyl-phenyl)-amide]
Cc1cc(C(N)=O)cc(C)c1NC(=O)c1c(NC[C@@H](O)c2cccc(Cl)c2)cc[nH]c1=O [Example 4o, 4-[(S)-2-(3-Chloro-phenyl)-2-hydroxy-ethylamino]-2-oxo-1,2-dihydro-pyridine-3-carboxylic acid (4-carbamoyl-2,6-dimethyl-phenyl)-amide]
COc1ccc(NC(=O)c2c(NC(C)C)cc[nH]c2=O)cc1N1CCN(C)CC1 [Example 6z, 4-Isopropylamino-2-oxo-1,2-dihydro-pyridine-3-carboxylic acid [4-methoxy-3-(4-methyl-piperazin-1-yl)-phenyl]-amide]
CN(C)c1ccc(NC(=O)c2c(NC[C@@H](O)c3cccc(Cl)c3)cc[nH]c2=O)cc1 [Example 2g, 4-[(S)-2-(3-Chloro-phenyl)-2-hydroxy-ethylamino]-2-oxo-1,2-dihydro-pyridine-3-carboxylic acid (4-dimethylamino-phenyl)-amide]
O=C(Nc1ccc(N2CCOCC2)c(F)c1)c1c(NC[C@@H](O)c2ccccc2)cc[nH]c1=O [Example 2b, 4-((S)-2-Hydroxy-2-phenyl-ethylamino)-2-oxo-1,2-dihydro-pyridine-3-carboxylic acid (3-fluoro-4-morpholin-4-yl-phenyl)-amide]
CC(=O)N1CCN(c2ccc(NC(=O)c3c(NCC(O)c4ccccc4)cc[nH]c3=O)cc2C(F)(F)F)CC1 (stereo not drawn) [Example 3, 4-(2-Hydroxy-2-phenyl-ethylamino)-2-oxo-1,2-dihydro-pyridine-3-carboxylic acid[4-(4-acetyl-piperazin-1-yl)-3-trifluoromethyl-phenyl]-amide]
CN1CCN(c2cccc(NC(=O)c3c(NCCc4c[nH]c5ccccc45)cc[nH]c3=O)c2)CC1 [Example 4ae, 4-[2-(1H-Indol-3-yl)-ethylamino]-2-ozo-1,2-dihydro-pyridine-3-carboxylic acid [3-(4-methyl-piperazin-1-yl)-phenyl]-amide]
COc1ccc(NC(=O)c2c(NCCc3cccc(Cl)c3)cc[nH]c2=O)cc1N1CCN(C)CC1 [Example 6o, 4-[2-(3-Chloro-phenyl)-ethylamino]-2-oxo-1,2-dihydro-pyridine-3-carboxylic acid [4-methoxy-3-(4-methyl-piperazin-1-yl)-phenyl]-amide]
CN1CCN(c2cccc(NC(=O)c3c(NCCc4ccccc4)cc[nH]c3=O)c2)CC1 [Example 4v, 2-Oxo-4-phenethylamino-1,2-dihydro-pyridine-3-carboxylic acid [3-(4-methyl-piperazin-1-yl)-phenyl]-amide]
COc1ccc(NC(=O)c2c(NS(=O)(=O)c3ccccc3)cc[nH]c2=O)cc1N1CCN(C)CC1 [Example 6p, 4-Benzenesulfonylamino-2-oxo-1,2-dihydro-pyridine-3-carboxylic acid [4-methoxy-3-(4-methyl-piperazin-1-yl)-phenyl]-amide]
Cc1cccc(CCNc2cc[nH]c(=O)c2C(=O)Nc2cccc(N3CCN(C)CC3)c2)c1 [Example 4aa, 2-Oxo-4-(2-m-tolyl-ethylamino)-1,2-dihydro-pyridine-3-carboxylic acid [3-(4-methyl-piperazin-1-yl)-phenyl]-amide]
